PubChem BioAssay AID743121, NCATS | 2013
Screen: 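Partners whose loss is lethal together with topoisomerase I blockade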 (primary screen). Cells: MDA-MB-231 cells, a human breast cancer line. Knock-down reagent: single siRNA against human genes, 20 nM siRNA (0.8 pmol per well). Time to read-out: 120 h (drug added 48 h after transfection, read 72 h later). Treatment: camptothecin 20 nM (about EC30) for 72 h; vehicle 0.1% DMSO in parallel plates. Measured: 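Cell viability by ATP luminescence (CellTiter-Glo) as % of non-targeting siRNA wells, and the log2 ratio of viability without drug over viability with camptothecin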. Reading the numbers: log2 vehicle/camptothecin viability: higher = stronger sensitisation to camptothecin; viability with camptothecin and viability without drug: higher = more viable cells. Call rule: 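Active genes have an RSA gene-level p-value below 0.001, computed from the ratios of their separate siRNAs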.
The whole screen tested about 26,000 reagents; this is a random part of them. 167 of all reagents (0.63%) were called active. 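Calls are per gene from RSA p-values that are not deposited; an individual active-marked siRNA can sensitise only weakly.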 Unmarked entries are inactive. Reagents against one gene are numbered here.

no.	gene symbol	siRNA no.	log2 vehicle/camptothecin viability	viability with camptothecin (% of control)	viability without drug (% of control)
1	JAK2	1	-0.368	97.6	75.6
2	JAK2	2	-0.483	112	79.9
3	JAK2	3	0.898	31	57.7
4	JAK2	4	0.151	67.5	74.9
5	RANBP9	1	-0.227	47.2	40.3
6	RANBP9	2	-0.631	98.7	63.7
7	RANBP9	3	-0.309	89.9	72.5
8	RANBP9	4	0.168	52.5	59
9	HTRA3	1	-0.568	122	82.1
10	HTRA3	2	-0.288	63.5	52.1
11	HTRA3	3	-0.161	41.2	36.9
12	HTRA3	4	-0.455	56.5	41.2
13	TCFL5	1	-0.522	54.1	37.7
14	TCFL5	2	-0.0909	118	111
15	TCFL5	3	0.374	25.7	33.4
16	TCFL5	4	-0.0354	55.4	54
17	IFNE	1	0.149	92.7	103
18	IFNE	2	0.115	98.1	106
19	IFNE	3	-0.537	58	40
20	IFNE	4	-0.149	107	96.5
21	TSSK4	1	0.263	92.1	111
22	TSSK4	2	-0.358	67.5	52.7
23	TSSK4	3	-0.189	81.6	71.5
24	TSSK4	4	0.553	58.6	86
25	TSSK4	5	0.125	98.1	107
26	TSSK4	6	-0.315	70.9	57
27	TSSK4	7	0.161	64.5	72.2
28	PTAFR	1	-0.578	59.7	40
29	PTAFR	2	-0.0736	31.3	29.7
30	PTAFR	3	-0.44	111	81.8
31	PTAFR	4	-0.0452	44.1	42.8

Quoted from above (5 entries):
no.	gene symbol	siRNA no.	log2 vehicle/camptothecin viability	viability with camptothecin (% of control)	viability without drug (% of control)
20	IFNE	4	-0.149	107	96.5
21	TSSK4	1	0.263	92.1	111
22	TSSK4	2	-0.358	67.5	52.7
23	TSSK4	3	-0.189	81.6	71.5
24	TSSK4	4	0.553	58.6	86
